Experimental data: article PMC9935546
These are yes or no findings as the source states them, for the method shown. In cells and extracts the contact can be indirect. Some binding calls cover weakened binding; strength is not graded here. Sequences can lack the tags named with a protein.

Target: T1, exogenous VDAC2 in NPC cells (two differently tagged copies), P45880
T1 chain: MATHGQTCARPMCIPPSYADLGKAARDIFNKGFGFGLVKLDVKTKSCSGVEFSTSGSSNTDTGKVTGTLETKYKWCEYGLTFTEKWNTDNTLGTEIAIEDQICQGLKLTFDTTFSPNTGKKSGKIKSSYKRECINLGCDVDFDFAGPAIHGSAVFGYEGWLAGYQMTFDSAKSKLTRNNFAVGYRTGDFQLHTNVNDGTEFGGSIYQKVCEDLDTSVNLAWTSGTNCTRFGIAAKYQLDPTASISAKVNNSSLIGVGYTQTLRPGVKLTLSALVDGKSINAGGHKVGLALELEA
Experiment: co-IP; two exogenous VDAC2 copies in lysates of NPC cells, with or without IR; precipitated with anti-FLAG antibody
Details: remark: other sources report otherwise

binding: binds
B1: exogenous VDAC2 in NPC cells (two differently tagged copies), P45880 1-294 (protein)
chain: MATHGQTCARPMCIPPSYADLGKAARDIFNKGFGFGLVKLDVKTKSCSGVEFSTSGSSNTDTGKVTGTLETKYKWCEYGLTFTEKWNTDNTLGTEIAIEDQICQGLKLTFDTTFSPNTGKKSGKIKSSYKRECINLGCDVDFDFAGPAIHGSAVFGYEGWLAGYQMTFDSAKSKLTRNNFAVGYRTGDFQLHTNVNDGTEFGGSIYQKVCEDLDTSVNLAWTSGTNCTRFGIAAKYQLDPTASISAKVNNSSLIGVGYTQTLRPGVKLTLSALVDGKSINAGGHKVGLALELEA
